For one assay, the target named is T1, PDL1-Fc fusion protein (human, UniProt Q9NZQ7 19-238, limits assumed).
T1 construct: Transiently expressed in HEK293 and used as the plate coat in the ELISAs; not shown: Fc part
Nature of the assay: ELISA, PDL1-Fc coated at 0.5 ug/well, anti-his-HRP detection. (An ELISA detects its analyte on a solid surface through an enzyme-linked reagent.)

By UniProt entry, the sequences of proteins in these tests, tags left out. Where a name states a change or a piece, a line headed by the entry shows the natural chain unless it says otherwise.
UniProt Q9NZQ7: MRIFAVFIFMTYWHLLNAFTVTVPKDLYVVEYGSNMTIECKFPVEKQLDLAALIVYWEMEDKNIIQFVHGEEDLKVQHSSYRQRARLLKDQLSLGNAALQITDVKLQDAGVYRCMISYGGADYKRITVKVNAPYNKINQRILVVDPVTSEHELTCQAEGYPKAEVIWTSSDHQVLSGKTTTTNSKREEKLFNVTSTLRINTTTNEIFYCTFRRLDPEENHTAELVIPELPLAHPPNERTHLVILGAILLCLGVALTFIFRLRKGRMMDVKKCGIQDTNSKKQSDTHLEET

Assay [1] has as its target PDL1-muFc fusion protein (using mouse Fc) (UniProt Q9NZQ7). Nature of the assay: competitive ELISA, PDL1-muFc coated, excess PD1-Fc present, anti-his-HRP detection.
Assay [2] has the same target. As to the kind of experiment: competitive ELISA on coated PDL1-muFc with excess PD1-Fc (10 ug per well) present, rising 109-chis, detection anti-his-HRP, OD405.
Assay [3] deals with PD-L1 target protein (Biacore ligand) (UniProt Q9NZQ7). As to the kind of experiment: SPR (Biacore T200). (Surface plasmon resonance follows binding to a sensor surface in real time, without labels.)

Changes are numbered by the printed parent chain. Names may count otherwise. No constants are given. Whether binding was seen depends on the method and setting. Some binding calls cover weakened binding; strength is not graded here. For some assays here: Sequences can lack the tags named with a protein.

B1: 109-chis (VHH)
VHH: QVQLQESGGGSVQAGGSLRLSCTASGFSLDDSDMGWYRQARGNVCQLVSTIASDRSTYYTPSVKGRFTISHDRAKNTIYLQMNSLKPEDTAVYYCAAAPRLAYTTAMTCEGDFAYWGQGTQVTVSS
For the molecule B1, the binding entry (with PDL1-Fc fusion protein; in assay [1]; in assay [2]) was “binds” each time.

B2: 109-RDNSE-cHis (VHH)
VHH: B1 VHH with H71R, R73N, A74S, K75E
With B2, the binding result with PDL1-Fc fusion protein is reported as “binds”.

B3: 109-R73N&K75E-cHis (VHH)
VHH: B1 VHH with R73N, K75E
Regarding B3, the binding result with PDL1-Fc fusion protein was “binds”.

B4: 109-K64Q-cHis (VHH)
VHH: B1 VHH with K64Q
As for B4, the binding result with PDL1-Fc fusion protein was “binds”.

B5: 109-K86R&P87A-cHis (VHH)
VHH: B1 VHH with K86R, P87A
Consider B5, for which, in the assay with PDL1-Fc fusion protein, the binding result was “binds”.

B6: 109 heavy-chain single domain antibody (VHH)
VHH: B1 VHH
notes: Untagged form
As for B6, the binding entry in assay [3] is “binds”.
